Survivor count and T/C data for 18 molecules are collected here from PubChem BioAssay AID342 (DTP/NCI, 2004).

The list shows only some results of the screen, not a fair sample: it gathers tests that were run many times, whatever their T/C, doses with no T/C, and many T/C values between a quarter and a half above the control. Other doses and runs of a compound stand elsewhere. T/C gives the treated animals as a percentage of the vehicle group. Schedules are NCI's codes, read here as Q, the interval in days (D) or hours (H), X, the number of doses. Some T/C values carry the count of animals alive at the toxicity check (mostly the fifth day); without a count, all were alive then. Some entries give survivors of the animals treated and no T/C: the source files T/C as zero there, which appears to mark a toxic dose or a test without result, not a measured value. Survivors were counted at the toxicity check, usually on the fifth day, unless a day is given; later deaths do not show. Some schedule codes hold Z or #, which are not explained here.

For the assay, the system named is Swiss mice, Sarcoma 180 sc, mean tumor weight T/C. Kind of assay: NCI In Vivo Anticancer Drug Screen. Data for tumor model Sarcoma 180 (subcutaneous) in Swiss mice. The conditions noted are these: T/C endpoint: mean tumor weight, higher T/C = larger tumour; for T/C: evaluated on day 8. The method in brief: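 Mice bearing transplanted tumors were treated with compound, and survival or tumor size was measured. Values are expressed as the treated-group measurement (T) divided by the vehicle-treated control measurement (C).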

[1] abbreviates: dose: 125.0 mg/kg/injection, schedule: Q01DX007 (ip), vehicle: carboxymethylcellulose (CMC).
[2] abbreviates: dose: 250.0 mg/kg/injection, schedule: Q01DX007 (ip), vehicle: carboxymethylcellulose (CMC).
Where [3] appears, read: dose: 500.0 mg/kg/injection, schedule: Q01DX007 (ip), vehicle: carboxymethylcellulose (CMC).
Where [4] appears, read: dose: 8.0 mg/kg/injection, schedule: Q01DX007 (ip), vehicle: carboxymethylcellulose (CMC).

On to `CCOc1ccc2nc(S(N)(=O)=O)sc2c1`, for which the survivor count (dose: 111.0 mg/kg/injection, schedule: Q#A X014 (ip), vehicle: methylcellulose (MC)) is 2 of 6; the survivor count (dose: 166.5 mg/kg/injection, schedule: Q#A X014 (ip), vehicle: methylcellulose (MC)) is 3 of 6; the survivor count (dose: 250.0 mg/kg/injection, schedule: Q#A X014 (ip), vehicle: methylcellulose (MC)) is reported as 1 of 6.

For `CC(O)C(NCNC(=O)C1=C(O)C2(O)C(=O)C3=C(O)c4c(O)cccc4C(C)(O)C3CC2C(N(C)C)C1=O)C(=O)O` (configuration not stated), for the setting “dose: 375.0 mg/kg/injection, schedule: Q#A X014 (ip), vehicle: saline”, the survivor count was 1 of 7.

With `Nc1nc(=S)c2ncn(C3CCCO3)c2[nH]1` (configuration not stated), the survivor count (dose: 180.0 mg/kg/injection, schedule: Q01DX007 (ip), vehicle: carboxymethylcellulose (CMC)) is 0 of 6.

As for `CCCCN(C)N=Nc1n[nH]nc1C(N)=O`, the survivor count (dose: 162.0 mg/kg/injection, schedule: Q01DX007 (ip), vehicle: carboxymethylcellulose (CMC)) is 3 of 6.

As to `C=CCOc1ccc2c(c1)CC[C@@H]1[C@@H]2CC[C@]2(C)[C@@H](O)[C@@H](O)C[C@@H]12`, the survivor count (dose: 10.0 mg/kg/injection, schedule: Q#A X014 (ip), vehicle: methylcellulose (MC)) is given as 3 of 6.

With `CC(=O)OCC(=O)[C@@]1(O)CC[C@H]2[C@@H]3C[C@H](C)C4=CC(=O)C=C[C@]4(C)[C@@]3(F)[C@@H](O)C[C@@]21C`, the survivor count is recorded as 2 of 6 (dose: 125.0 mg/kg/injection, schedule: Q01DX007 (sc), vehicle: steroid suspending solution); 0 of 6 (dose: 187.0 mg/kg/injection, schedule: Q01DX007 (sc), vehicle: steroid suspending solution); 1 of 6 (dose: 281.0 mg/kg/injection, schedule: Q01DX007 (sc), vehicle: steroid suspending solution).

For `C[N+]1(CCC[N+]2(C)CC3C4C=CC(CC4)C3C2)CCOCC1` (configuration not stated), the survivor count (dose: 125.0 mg/kg/injection, schedule: Q01DX007 (ip), vehicle: saline) is 2 of 6; the survivor count (dose: 250.0 mg/kg/injection, schedule: Q01DX007 (ip), vehicle: saline) is listed as 0 of 6; the survivor count (dose: 500.0 mg/kg/injection, schedule: Q01DX007 (ip), vehicle: saline) was 0 of 6; the survivor count (dose: 1000.0 mg/kg/injection, schedule: Q01DX007 (ip), vehicle: saline) is given as 0 of 6.

As to `O=C(O)Cc1ccc(C2CCCCC2)cc1`, for the setting “dose: 150.0 mg/kg/injection, schedule: Q01DX007 (ip), vehicle: carboxymethylcellulose (CMC)”, the T/C is 136 % of control. Also, where the note is “dose: 1200.0 mg/kg/injection, schedule: Q01DX007 (ip), vehicle: carboxymethylcellulose (CMC)”, the survivor count is listed as 1 of 7.

In the case of `CN(C)c1ccc(/C=C/c2ccnc3ccccc23)cc1`, the T/C (dose: 7.75 mg/kg/injection, schedule: Q01DX007 (ip), vehicle: water) is 127 % of control. Besides, the survivor count reads like this: (dose: 31.0 mg/kg/injection, schedule: Q01DX007 (ip), vehicle: water) 0 of 6; (dose: 62.0 mg/kg/injection, schedule: Q01DX007 (ip), vehicle: water) 0 of 6; under setting [1], 2 of 6; under setting [2], 0 of 6; under setting [3], 0 of 6.

Regarding `COc1cc2c3c(c4cc(OC)c(OC)cc4c2cc1OC)CN1CCC[C@H]1C3`, the survivor count (dose: 20.0 mg/kg/injection, schedule: Q01DX007 (ip), vehicle: water) is listed as 2 of 6.

Take `CN(C)Cc1c[nH]c2ccccc12`: the survivor count runs as follows: under setting [1], 2 of 6; under setting [2], 0 of 6; under setting [3], 0 of 6.

Regarding `CCN(CC)CCOC(=O)c1ccc(N)cc1`, the survivor count is reported as 0 of 7 (dose: 150.0 mg/kg/injection, schedule: Q#A X014 (ip), vehicle: saline) and 0 of 7 (dose: 300.0 mg/kg/injection, schedule: Q#A X014 (ip), vehicle: saline).

`CCCCCCCCCCCCOP(N)(=O)OCCCCCCCCCCCC`: under “dose: 40.0 mg/kg/injection, schedule: Q01DX007 (ip), vehicle: carboxymethylcellulose (CMC)”, the T/C was 147 % of control [4 of 6 alive]. Moreover, the survivor count under setting [1] is on record as 0 of 6 and the survivor count (dose: 187.0 mg/kg/injection, schedule: Q01DX007 (ip), vehicle: carboxymethylcellulose (CMC)) is 0 of 6.

In the case of `NC(=O)c1n[se]nc1N`, the survivor count is, setting by setting: (dose: 4.0 mg/kg/injection, schedule: Q01DX007 (ip), vehicle: carboxymethylcellulose (CMC)) 3 of 6; under setting [4], 0 of 6; (dose: 16.0 mg/kg/injection, schedule: Q01DX007 (ip), vehicle: carboxymethylcellulose (CMC)) 0 of 6; (dose: 31.0 mg/kg/injection, schedule: Q01DX007 (ip), vehicle: carboxymethylcellulose (CMC)) 0 of 6; (dose: 62.0 mg/kg/injection, schedule: Q01DX007 (ip), vehicle: carboxymethylcellulose (CMC)) 0 of 6.

As to `O=CN(O)CC(=O)O`, under setting [1], the T/C was 128 % of control [5 of 6 alive].

Regarding `CCCCOCN1CCCCC1`, the survivor count (dose: 200.0 mg/kg/injection, schedule: Q01DX007 (ip), vehicle: carboxymethylcellulose (CMC)) is on record as 1 of 6.

With `COCCOC1=C(N2CC2)C(=O)C(OCCOC)=C(N2CC2)C1=O`, the survivor count reads like this: (dose: 0.4 mg/kg/injection, schedule: Q01DX007 (sc), vehicle: saline) 0 of 6; (dose: 0.59 mg/kg/injection, schedule: Q01DX007 (sc), vehicle: saline) 0 of 6; (dose: 0.89 mg/kg/injection, schedule: Q01DX007 (sc), vehicle: saline) 0 of 6; (dose: 1.3 mg/kg/injection, schedule: Q01DX007 (sc), vehicle: saline) 0 of 6; (dose: 4.0 mg/kg/injection, schedule: Q01DX007 (im), vehicle: saline) 3 of 6; (dose: 4.0 mg/kg/injection, schedule: Q01DX007 (ip), vehicle: saline) 3 of 6. The survivor count is, setting by setting: (dose: 4.0 mg/kg/injection, schedule: Q01DX007 (sc), vehicle: saline) 2 of 6; (dose: 6.0 mg/kg/injection, schedule: Q01DX001 (ip), vehicle: saline) 2 of 6; (dose: 6.0 mg/kg/injection, schedule: Q01DX006 (iv), vehicle: saline) 0 of 6; (dose: 6.0 mg/kg/injection, schedule: Q01DX007 (im), vehicle: saline) 1 of 6; (dose: 6.0 mg/kg/injection, schedule: Q01DX007 (ip), vehicle: saline) 0 of 6; (dose: 6.0 mg/kg/injection, schedule: Q01DX007 (sc), vehicle: saline) 1 of 6. The survivor count runs as follows: (dose: 10.0 mg/kg/injection, schedule: Q01DX006 (iv), vehicle: saline) 0 of 6; (dose: 10.0 mg/kg/injection, schedule: Q01DX007 (im), vehicle: saline) 0 of 6; (dose: 10.0 mg/kg/injection, schedule: Q01DX007 (ip), vehicle: saline) 0 of 6; (dose: 10.0 mg/kg/injection, schedule: Q01DX007 (sc), vehicle: saline) 0 of 6; (dose: 12.0 mg/kg/injection, schedule: Q01DX001 (ip), vehicle: saline) 0 of 6; (dose: 16.0 mg/kg/injection, schedule: Q01DX007 (oral), vehicle: saline) 3 of 6. The survivor count is recorded as 0 of 6 (dose: 24.0 mg/kg/injection, schedule: Q01DX007 (oral), vehicle: saline) and 0 of 6 (dose: 40.0 mg/kg/injection, schedule: Q01DX007 (oral), vehicle: saline). In addition, the T/C was 129 % of control (dose: 0.89 mg/kg/injection, schedule: Q01DX001 (ip), vehicle: saline) and 145 % of control (dose: 1.3 mg/kg/injection, schedule: Q01DX001 (ip), vehicle: saline).

As for `O=C(O)CCc1c[nH]c2ccc(N(CCCl)CCCl)cc12`, the survivor count is, setting by setting: under setting [4], 3 of 6; (dose: 15.0 mg/kg/injection, schedule: Q01DX007 (ip), vehicle: carboxymethylcellulose (CMC)) 0 of 6.
